{"source": "PubChem BioAssay AID504764 (Drosophila RNAi Screening Center, 2011)", "screen": "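Genome-wide screen for regulators of Notch-driven gene expression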 (primary screen)", "cells": "Drosophila Kc167 cells", "reagents": "long dsRNA against Drosophila genes", "timing": "about 5 days (4 days dsRNA, then 24 h after transfection)", "challenge": "transfection of constitutively active membrane-tethered Notch lacking the extracellular domain, read 24 h later", "detection": "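Light from a Notch-responsive E(spl)m3 luciferase reporter under active Notch, with control-promoter and no-Notch reporter wells to normalise; raw counts from paired wells a and b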", "scale": "induced reporter light, run 1, well a and induced reporter light, run 1, well b: higher = more light from the Notch target reporter with active Notch; control promoter light, run 1, well a and control promoter light, run 1, well b: higher = more light from the viral control promoter (cell number, transfection, viability); uninduced reporter light, run 1, well a: higher = more light from the Notch target reporter without active Notch", "call rule": "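Hit if the duplicate-averaged log2 ratio of induced to control-promoter light gives a plate-wise z beyond ±2, or induced to uninduced beyond ±1.8; weak-control or discordant-duplicate wells dropped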", "meaning of the calls": "active = modifier hit (raised or lowered Notch signal); inactive = not a hit", "note": "In all, the deposit lists about 22,000 reagents; shown is an unselected part of those with a known target gene and a result. Over the whole deposit, 403 (1.9%) are marked active. 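Unnormalised raw counts per well; ratio z-scores behind the hit calls and whether each hit raises or lowers signal are not deposited.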 No sequences are given here. The record does not give: the amount of reagent."}
{"Gene": "Grl58a", "DRSC id": "DRSC04145", "induced reporter light, run 1, well a": 49790, "induced reporter light, run 1, well b": 35375, "control promoter light, run 1, well a": 37230, "control promoter light, run 1, well b": 45465, "uninduced reporter light, run 1, well a": 2242, "Call": "inactive"}
{"Gene": "Ir93a", "DRSC id": "DRSC15212", "induced reporter light, run 1, well a": 29065, "induced reporter light, run 1, well b": 34830, "control promoter light, run 1, well a": 28620, "control promoter light, run 1, well b": 38140, "uninduced reporter light, run 1, well a": 2395, "Call": "inactive"}
{"Gene": "Ir93a", "DRSC id": "DRSC15213", "induced reporter light, run 1, well a": 1.73e5, "induced reporter light, run 1, well b": 1.47e5, "control promoter light, run 1, well a": 1.27e5, "control promoter light, run 1, well b": 1.17e5, "uninduced reporter light, run 1, well a": 11545, "Call": "active"}
{"Gene": "jigr1", "DRSC id": "DRSC13724", "induced reporter light, run 1, well a": 1.98e5, "induced reporter light, run 1, well b": 1.82e5, "control promoter light, run 1, well a": 1.51e5, "control promoter light, run 1, well b": 1.38e5, "uninduced reporter light, run 1, well a": 13885, "Call": "inactive"}
{"Gene": "jigr1", "DRSC id": "DRSC15233", "induced reporter light, run 1, well a": 2.32e5, "induced reporter light, run 1, well b": 1.90e5, "control promoter light, run 1, well a": 2.42e5, "control promoter light, run 1, well b": 1.96e5, "uninduced reporter light, run 1, well a": 15105, "Call": "inactive"}
{"Gene": "roq", "DRSC id": "DRSC10227", "induced reporter light, run 1, well a": 1.08e5, "induced reporter light, run 1, well b": 1.56e5, "control promoter light, run 1, well a": 59345, "control promoter light, run 1, well b": 62645, "uninduced reporter light, run 1, well a": 8378, "Call": "inactive"}
{"Gene": "CG13075", "DRSC id": "DRSC09958", "induced reporter light, run 1, well a": 1.41e5, "induced reporter light, run 1, well b": 1.32e5, "control promoter light, run 1, well a": 1.65e5, "control promoter light, run 1, well b": 1.70e5, "uninduced reporter light, run 1, well a": 9185, "Call": "inactive"}
{"Gene": "CG4362", "DRSC id": "DRSC15567", "induced reporter light, run 1, well a": 1.91e5, "induced reporter light, run 1, well b": 1.51e5, "control promoter light, run 1, well a": 1.63e5, "control promoter light, run 1, well b": 1.62e5, "uninduced reporter light, run 1, well a": 10705, "Call": "inactive"}
{"Gene": "CG31776", "DRSC id": "DRSC00716", "induced reporter light, run 1, well a": 1.41e5, "induced reporter light, run 1, well b": 1.16e5, "control promoter light, run 1, well a": 1.57e5, "control promoter light, run 1, well b": 1.26e5, "uninduced reporter light, run 1, well a": 8495, "Call": "inactive"}
{"Gene": "Jhbp11", "DRSC id": "DRSC15183", "induced reporter light, run 1, well a": 2.43e5, "induced reporter light, run 1, well b": 2.89e5, "control promoter light, run 1, well a": 2.14e5, "control promoter light, run 1, well b": 2.46e5, "uninduced reporter light, run 1, well a": 15638, "Call": "active"}
{"Gene": "CG11041", "DRSC id": "DRSC06025", "induced reporter light, run 1, well a": 1.38e5, "induced reporter light, run 1, well b": 92655, "control promoter light, run 1, well a": 1.33e5, "control promoter light, run 1, well b": 1.31e5, "uninduced reporter light, run 1, well a": 12090, "Call": "inactive"}
{"Gene": "CG9270", "DRSC id": "DRSC03182", "induced reporter light, run 1, well a": 2.29e5, "induced reporter light, run 1, well b": 2.01e5, "control promoter light, run 1, well a": 1.36e5, "control promoter light, run 1, well b": 1.37e5, "uninduced reporter light, run 1, well a": 12805, "Call": "inactive"}
{"Gene": "nemy", "DRSC id": "DRSC05357", "induced reporter light, run 1, well a": 1.57e5, "induced reporter light, run 1, well b": 1.71e5, "control promoter light, run 1, well a": 2.62e5, "control promoter light, run 1, well b": 2.21e5, "uninduced reporter light, run 1, well a": 16675, "Call": "inactive"}
{"Gene": "nemy", "DRSC id": "DRSC07262", "induced reporter light, run 1, well a": 98670, "induced reporter light, run 1, well b": 1.10e5, "control promoter light, run 1, well a": 1.09e5, "control promoter light, run 1, well b": 1.02e5, "uninduced reporter light, run 1, well a": 8705, "Call": "inactive"}
{"Gene": "CG14273", "DRSC id": "DRSC02377", "induced reporter light, run 1, well a": 1.24e5, "induced reporter light, run 1, well b": 1.52e5, "control promoter light, run 1, well a": 74335, "control promoter light, run 1, well b": 99860, "uninduced reporter light, run 1, well a": 17465, "Call": "inactive"}
{"Gene": "conu", "DRSC id": "DRSC07810", "induced reporter light, run 1, well a": 2.10e5, "induced reporter light, run 1, well b": 1.84e5, "control promoter light, run 1, well a": 2.11e5, "control promoter light, run 1, well b": 2.14e5, "uninduced reporter light, run 1, well a": 16500, "Call": "inactive"}
{"Gene": "Uch", "DRSC id": "DRSC00797", "induced reporter light, run 1, well a": 1.93e5, "induced reporter light, run 1, well b": 1.64e5, "control promoter light, run 1, well a": 2.24e5, "control promoter light, run 1, well b": 1.99e5, "uninduced reporter light, run 1, well a": 17900, "Call": "inactive"}
{"Gene": "CG12486 (retired record)", "DRSC id": "DRSC09888", "induced reporter light, run 1, well a": 1.68e5, "induced reporter light, run 1, well b": 1.75e5, "control promoter light, run 1, well a": 1.91e5, "control promoter light, run 1, well b": 1.95e5, "uninduced reporter light, run 1, well a": 7535, "Call": "inactive"}

Active calls, of those listed so far:
{"Gene": "Ir93a", "DRSC id": "DRSC15213", "induced reporter light, run 1, well a": 1.73e5, "induced reporter light, run 1, well b": 1.47e5, "control promoter light, run 1, well a": 1.27e5, "control promoter light, run 1, well b": 1.17e5, "uninduced reporter light, run 1, well a": 11545, "Call": "active"}
{"Gene": "Jhbp11", "DRSC id": "DRSC15183", "induced reporter light, run 1, well a": 2.43e5, "induced reporter light, run 1, well b": 2.89e5, "control promoter light, run 1, well a": 2.14e5, "control promoter light, run 1, well b": 2.46e5, "uninduced reporter light, run 1, well a": 15638, "Call": "active"}
